PubChem BioAssay AID504764 – Drosophila RNAi Screening Center | 2011
The deposit covers about 22,000 reagents; this is a random part of those with a known target gene and a result. In the full data, 403 (1.9%) got an active call. 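Unnormalised raw counts per well; ratio z-scores behind the hit calls and whether each hit raises or lowers signal are not deposited.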 A plus sign joins genes that one reagent is predicted to hit. Not given: the amount of reagent.

Test: 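Knock-downs that raise or lower a Notch target reporter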 (primary screen)
Cell system: Drosophila Kc167 cells
Knock-down reagent: long dsRNA against Drosophila genes
Timing: about 5 days (4 days dsRNA, then 24 h after transfection)
Conditions: transfection of constitutively active membrane-tethered Notch lacking the extracellular domain, read 24 h later
Measured: 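Light from a Notch-responsive E(spl)m3 luciferase reporter under active Notch, with control-promoter and no-Notch reporter wells to normalise; raw counts from paired wells a and b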
Scale: induced reporter light, run 1, well a and induced reporter light, run 1, well b: higher = more light from the Notch target reporter with active Notch; control promoter light, run 1, well a and control promoter light, run 1, well b: higher = more light from the viral control promoter (cell number, transfection, viability); uninduced reporter light, run 1, well a: higher = more light from the Notch target reporter without active Notch
Active means: 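Hit if the duplicate-averaged log2 ratio of induced to control-promoter light gives a plate-wise z beyond ±2, or induced to uninduced beyond ±1.8; weak-control or discordant-duplicate wells dropped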
Calls: active = modifier hit (raised or lowered Notch signal); inactive = not a hit

Target gene	DRSC id	induced reporter light, run 1, well a	induced reporter light, run 1, well b	control promoter light, run 1, well a	control promoter light, run 1, well b	uninduced reporter light, run 1, well a	activity call
CG13643	DRSC14641	1.63e5	1.52e5	1.58e5	1.46e5	10920	inactive
CG13643	DRSC14642	2.34e5	2.27e5	2.54e5	1.86e5	14480	inactive
Lsd-2	DRSC20143	1.70e5	1.71e5	2.16e5	1.60e5	10628	inactive
Sardh	DRSC06981	87615	96075	1.48e5	1.77e5	7455	inactive
Uch-L5	DRSC11314	1.12e5	98595	76385	31240	8370	inactive
CG7131	DRSC16203	2.10e5	2.03e5	2.95e5	2.87e5	15310	inactive
CG15373	DRSC19663	54530	55430	61905	53835	8475	inactive
Srr	DRSC16382	98405	1.02e5	1.43e5	90475	6845	inactive
Myt1	DRSC11228	2.74e5	2.35e5	2.44e5	2.57e5	14815	inactive
coil	DRSC07242	1.84e5	1.70e5	1.53e5	1.76e5	14130	inactive
CG17807	DRSC04296	1.74e5	1.73e5	1.55e5	1.32e5	11755	inactive
CG15251 (retired record)	DRSC17980	1.26e5	1.41e5	2.46e5	2.71e5	9780	inactive
CG8888	DRSC07294	1.90e5	1.47e5	1.45e5	1.77e5	12260	inactive
CG8888	DRSC07295	63740	1.27e5	1.42e5	1.82e5	12310	inactive
Rpt2	DRSC16799	4615	4985	4065	6700	355	inactive
CCT4	DRSC02865	44850	46635	44640	46765	4240	inactive
CG33771	DRSC11718	1.72e5	2.11e5	3.10e5	3.09e5	11900	inactive
CG42232	DRSC15018	1.23e5	1.13e5	1.38e5	1.49e5	12605	inactive
CG42232	DRSC15019	1.79e5	1.97e5	2.19e5	2.93e5	17950	inactive
bor	DRSC16915	1.08e5	1.09e5	1.33e5	1.36e5	10630	inactive
CG3349	DRSC10359	1.63e5	1.72e5	2.08e5	1.40e5	6920	inactive
fd3F (retired record)	DRSC17843	17515	19360	43180	40810	5380	inactive
CG31908	DRSC21864						inactive
MED25	DRSC14483	5475	5080	6315	6945	2450	inactive
CG3520	DRSC04383	1.60e5	1.55e5	1.59e5	1.51e5	10715	inactive
Dpck	DRSC12575	72040	85510	1.22e5	1.05e5	6500	inactive
CG5934	DRSC15922	1.28e5	1.35e5	1.72e5	1.77e5	11210	inactive
CG34260 + cmpy	DRSC11701	1.50e5	1.09e5	86120	85230	9710	inactive
Fbp2	DRSC03327	1.87e5	2.56e5	1.70e5	2.21e5	15685	inactive
CG17801	DRSC15273	1.87e5	1.68e5	1.81e5	1.64e5	11925	inactive
lcs	DRSC20580	67730	92025	91655	1.04e5	9005	inactive
CG42747	DRSC10209	90790	1.00e5	1.24e5	83735	5292	inactive
CG42747	DRSC10210	1.74e5	1.86e5	3.25e5	3.20e5	8895	active
PAN2	DRSC07115	1.34e5	1.36e5	1.48e5	1.56e5	12605	inactive
CG42662 + CG30080	DRSC05571	1.86e5	2.11e5	2.66e5	3.94e5	19380	inactive
PXo	DRSC09734	91980	69970	80265	25840	9015	inactive
CG10589	DRSC11629	1.30e5	1.66e5	1.41e5	1.16e5	8655	inactive
dsb	DRSC08407	12280	13125	25955	25300	2970	inactive
dsb	DRSC08542	91025	94205	1.31e5	1.98e5	5895	inactive
CG8209	DRSC10970	2.70e5	2.46e5	3.89e5	2.36e5	15300	inactive
alpha-Est7	DRSC12619	2.11e5	1.49e5	3.27e5	2.87e5	15275	inactive
CG1136	DRSC08184	1.23e5	1.01e5	91650	24825	13370	inactive
ng4	DRSC18805	1.10e5	1.24e5	2.31e5	1.90e5	7690	inactive
Stacl + CG8179 (retired record)	DRSC07091	87455	1.03e5	1.44e5	1.63e5	9970	inactive
ncm	DRSC02179	28535	31250	31105	31220	2795	inactive
Npc2b	DRSC15464	2.10e5	2.31e5	1.77e5	1.56e5	15140	inactive
HHEX	DRSC16186	1.07e5	94290	1.58e5	1.45e5	8385	inactive
CG7054	DRSC16185	1.51e5	1.49e5	2.37e5	2.53e5	12765	inactive
CG7781	DRSC03068	1.50e5	1.92e5	91860	1.40e5	22300	inactive
capt	DRSC00676	1.00e5	76135	70700	57855	7240	inactive
capt	DRSC00806	1.04e5	87725	80460	66630	10235	inactive

Entries listed above called active (1):
Target gene	DRSC id	induced reporter light, run 1, well a	induced reporter light, run 1, well b	control promoter light, run 1, well a	control promoter light, run 1, well b	uninduced reporter light, run 1, well a	activity call
CG42747	DRSC10210	1.74e5	1.86e5	3.25e5	3.20e5	8895	active
